Source: PMC9677703
Results are given in words; binding and its absence hold for the method and conditions named. In cells and extracts the contact can be indirect. A yes stands for co-enrichment or nearness to the bait. Other partners may have been found. Sequences can lack the tags named with a protein.

T1: recombinant His-tagged FGF12 (UniProt P61328)
T1 sequence: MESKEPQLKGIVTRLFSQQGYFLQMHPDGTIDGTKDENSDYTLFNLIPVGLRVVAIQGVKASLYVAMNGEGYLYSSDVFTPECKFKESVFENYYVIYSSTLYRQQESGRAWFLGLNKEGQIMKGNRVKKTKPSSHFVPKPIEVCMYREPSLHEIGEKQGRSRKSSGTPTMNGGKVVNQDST


Biological target: T1, recombinant His-tagged FGF12
Experiment: affinity purification with mass spectrometry; recombinant His-tagged FGF12 coupled to Ni-NTA / Ni Sepharose resin, incubated with U2OS cell lysate; on-bead trypsin digestion, LC-MS/MS; only the target purified

binding	Binder
binds	Thyroid hormone receptor-associated protein 3 (protein, UniProt Q9Y2W1 1-955) MSKTNKSKSGSRSSRSRSASRSRSRSFSKSRSRSRSLSRSRKRRLSSRSRSRSYSPAHNRERNHPRVYQNRDFRGHNRGYRRPYYFRGRNRGFYPWGQYNRGGYGNYRSNWQNYRQAYSPRRGRSRSRSPKRRSPSPRSRSHSRNSDKSSSDRSRRSSSSRSSSNHSRVESSKRKSAKEKKSSSKDSRPSQAAGDNQGDEAKEQTFSGGTSQDTKASESSKPWPDATYGTGSASRASAVSELSPRERSPALKSPLQSVVVRRRSPRPSPVPKPSPPLSSTSQMGSTLPSGAGYQSGTHQGQFDHGSGSLSPSKKSPVGKSPPSTGSTYGSSQKEESAASGGAAYTKRYLEEQKTENGKDKEQKQTNTDKEKIKEKGSFSDTGLGDGKMKSDSFAPKTDSEKPFRGSQSPKRYKLRDDFEKKMADFHKEEMDDQDKDKAKGRKESEFDDEPKFMSKVIGANKNQEEEKSGKWEGLVYAPPGKEKQRKTEELEEESFPERSKKEDRGKRSEGGHRGFVPEKNFRVTAYKAVQEKSSSPPPRKTSESRDKLGAKGDFPTGKSSFSITREAQVNVRMDSFDEDLARPSGLLAQERKLCRDLVHSNKKEQEFRSIFQHIQSAQSQRSPSELFAQHIVTIVHHVKEHHFGSSGMTLHERFTKYLKRGTEQEAAKNKKSPEIHRRIDISPSTFRKHGLAHDEMKSPREPGYKAEGKYKDDPVDLRLDIERRKKHKERDLKRGKSRESVDSRDSSHSRERSAEKTEKTHKGSKKQKKHRRARDRSRSSSSSSQSSHSYKAEEYTEETEEREESTTGFDKSRLGTKDFVGPSERGGGRARGTFQFRARGRGWGRGNYSGNNNNNSNNDFQKRNREEEWDPEYTPKSKKYYLHDDREGEGSDKWVSRGRGRGAFPRGRGRFMFRKSSTSPKWAHDKFSGEEGEIEDDESGTENREEKDNIQPTTE
binds	treacle ribosome biogenesis factor 1 (protein, UniProt Q13428 1-1488, heavily phosphorylated (sites not given)) MAEARKRRELLPLIYHHLLRAGYVRAAREVKEQSGQKCFLAQPVTLLDIYTHWQQTSELGRKRKAEEDAALQAKKTRVSDPISTSESSEEEEEAEAETAKATPRLASTNSSVLGADLPSSMKEKAKAETEKAGKTGNSMPHPATGKTVANLLSGKSPRKSAEPSANTTLVSETEEEGSVPAFGAAAKPGMVSAGQADSSSEDTSSSSDETDVEGKPSVKPAQVKASSVSTKESPARKAAPAPGKVGDVTPQVKGGALPPAKRAKKPEEESESSEEGSESEEEAPAGTRSQVKASEKILQVRAASAPAKGTPGKGATPAPPGKAGAVASQTKAGKPEEDSESSSEESSDSEEETPAAKALLQAKASGKTSQVGAASAPAKESPRKGAAPAPPGKTGPAVAKAQAGKREEDSQSSSEESDSEEEAPAQAKPSGKAPQVRAASAPAKESPRKGAAPAPPRKTGPAAAQVQVGKQEEDSRSSSEESDSDREALAAMNAAQVKPLGKSPQVKPASTMGMGPLGKGAGPVPPGKVGPATPSAQVGKWEEDSESSSEESSDSSDGEVPTAVAPAQEKSLGNILQAKPTSSPAKGPPQKAGPVAVQVKAEKPMDNSESSEESSDSADSEEAPAAMTAAQAKPALKIPQTKACPKKTNTTASAKVAPVRVGTQAPRKAGTATSPAGSSPAVAGGTQRPAEDSSSSEESDSEEEKTGLAVTVGQAKSVGKGLQVKAASVPVKGSLGQGTAPVLPGKTGPTVTQVKAEKQEDSESSEEESDSEEAAASPAQVKTSVKKTQAKANPAAARAPSAKGTISAPGKVVTAAAQAKQRSPSKVKPPVRNPQNSTVLARGPASVPSVGKAVATAAQAQTGPEEDSGSSEEESDSEEEAETLAQVKPSGKTHQIRAALAPAKESPRKGAAPTPPGKTGPSAAQAGKQDDSGSSSEESDSDGEAPAAVTSAQVIKPPLIFVDPNRSPAGPAATPAQAQAASTPRKARASESTARSSSSESEDEDVIPATQCLTPGIRTNVVTMPTAHPRIAPKASMAGASSSKESSRISDGKKQEGPATQVSKKNPASLPLTQAALKVLAQKASEAQPPVARTQPSSGVDSAVGTLPATSPQSTSVQAKGTNKLRKPKLPEVQQATKAPESSDDSEDSSDSSSGSEEDGEGPQGAKSAHTLGPTPSRTETLVEETAAESSEDDVVAPSQSLLSGYMTPGLTPANSQASKATPKLDSSPSVSSTLAAKDDPDGKQEAKPQQAAGMLSPKTGGKEAASGTTPQKSRKPKKGAGNPQASTLALQSNITQCLLGQPWPLNEAQVQASVVKVLTELLEQERKKVVDTTKESSRKGWESRKRKLSGDQPAARTPRSKKKKKLGAGEGGEASVSPEKTSTTSKGKAKRDKASGDVKEKKGKGSLGSQGAKDEPEEELQKGMGTVEGGDQSNPKSKKEKKKSDKRKKDKEKKEKKKKAKKASTKDSESPSQKKKKKKKKTAEQTV
